Measured values as given in PubChem BioAssay AID540276 (National Center for Advancing Translational Sciences (NCATS), 2011).
“And” between values parts separate entries of the source, which are not always exact repeats. Identical values can stand only once. The campaign covered roughly 300,000 compounds. About 5,400 (1.8%) were called active. Inconclusive means that the source gave no clear call. Such entries were picked first, then a sample of the others. Calls follow the shape of the full dose curve; tested in HEK293 cells. Potencies of inconclusive entries are doubtful fits and often do not repeat.
% is scaled to controls: 0 for no effect and ±100 for the full control effect; potency is read from the fitted curve at half-maximal effect.

Test: qHTS for inhibitors of binding or entry into cells for Marburg Virus
Details: Marburg virus pseudotyped entry inhibition, cell reporter; activity change, negative = inhibition: at 37.8 µM (top of the series) unless noted
With `O=C1OC(c2ccccc2)=NC12CC2c1ccc(Cl)cc1` (stereo unspecified) the Potency was inconclusive: 35.5 µM [inhibitor, single point].
For `CCC(c1nnnn1CCOC)N1CCN(c2nc3ccccc3s2)CC1` (stereo unspecified), the Potency was inconclusive: 35.5 µM [inhibitor, single point].
With `C=CCNC(=O)N1CCCC(C(=O)c2cccc(OC(C)C)c2)C1` (stereo unspecified) the Potency was inconclusive: 35.5 µM [inhibitor, single point].
In the case of `CCCCCN(CCCCC)C(=O)C(CCC(=O)O)NC(=O)c1ccc(Cl)c(Cl)c1` (stereo unspecified), the Potency was “inactive and inconclusive: 2.31 µM [activator, partial curve]”.
With `CCC(=O)Nc1c(-c2ccc(C)cc2)nc2ccc(C)cn12` the “activity change, negative = inhibition” value was inactive: 14.8%.
With `CCC(C)(C)NC(=O)/C=C/c1cccs1` the “activity change, negative = inhibition” value was inactive: 1.43%.
In the case of `CC(C)Cn1nc(NC(=O)c2cccc(Cl)c2)c2cc3ccccc3nc21`, the Potency was inconclusive: 3.55 µM [inhibitor, single point].
In the case of `CC(C)Oc1cc(C(=O)NC2CCCCC2)c2ccccc2n1`, the Potency was inconclusive: 39.8 µM [inhibitor, partial curve, poor fit].
For `CC(C)(C)c1ccc(C(=O)Nc2ccc(Cl)cc2)cc1`, the Potency was inconclusive: 0.517 µM [activator, full curve, poor fit].
With `Cc1ccc(C(=O)Nc2ccc(N3CCCC3)cc2)cc1` the “activity change, negative = inhibition” value was inactive: 0% [at 46.1 µM].
With `COc1ccc(-c2ccc(C3C(C#N)=C(N)Oc4n[nH]c(C)c43)o2)cc1` (stereo unspecified) the “activity change, negative = inhibition” value was inactive: 16.1%.
With `CCCCCCCCCC[n+]1cccc(C(=O)N(CC)CC)c1` the “activity change, negative = inhibition” value was inactive: 19.3%.
For `O=C(O)c1ccc(-c2ccc(OS(=O)(=O)c3ccccc3F)cc2)cc1`, the activity change, negative = inhibition was inconclusive: 35.5% [activator] [at 46.1 µM].
With `COc1ccc(NC(=S)N(CCCN2CCOCC2)Cc2cn(C)c3ccccc23)cc1OC` the Potency was inconclusive: 6.51 µM [activator, single point].
With `COc1ccc(C(=O)Nn2c(SCC(=O)NCC3CCCO3)nc3ccccc3c2=O)cc1` (stereo unspecified) the Potency was inconclusive: 4.61 µM [inhibitor, full curve, poor fit].
With `O=C(NCc1ccccc1)/C(=C/c1ccccc1)NC(=O)c1ccco1` the “activity change, negative = inhibition” value was inactive: 2.25% [at 46.1 µM].
In the case of `O=C1CCN=C(Nc2ccc(F)cc2)N1Cc1ccccc1`, the “activity change, negative = inhibition” value was inactive: 9.59%.
In the case of `CCOC(=O)c1cccnc1SCC(=O)N(CC)c1cccc(C)c1`, the Potency was “inactive”.
With `COCCN1C(=O)NC(CCc2ccccc2)C(C(C)=O)=C1C` (stereo unspecified) the “activity change, negative = inhibition” value was inactive: 4.87% [at 14.2 µM].
With `c1csc(-c2cn3ccc4ccccc4c3n2)c1` the Potency was inconclusive: 4.47 µM [activator, partial curve, poor fit].
For `Cc1cc(NC(=O)CCSc2ccccc2)ccc1Br`, the Potency was inconclusive: 2 µM [activator, full curve, poor fit].
